This is one part of the list.
Assays:
Experiment in all cases: log2 fold change, soluble protein after heating vs DMSO (PISA); higher = thermal stabilisation; K562 lysate, 10 uM; active = over 0.2 and 3.5 SD of the protein, either way, in both replicates (recomputed)
[1] = compound: C1=CC=C(C=C1)[C@H](COC2=CC3=C(C=C2)NC(=O)N3)NC(=O)C4=CC=CN(C4=O)CC5=CC(=C(C=C5)F)F
Outline: (§1)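 K562 pellets were dounce-homogenised in PBS pH 7.4 with 1 mM MgCl2, and the crude extract at 1 mg/mL protein was treated with 10 μM compound for 30 min. Aliquots were heated for 3 min across 48°C-58°C, pooled, and brought to 0.5% NP-40 at 4°C; soluble protein was the supernatant after 21,000xg for 90 min. Soluble protein was quantified by TMTpro 16plex LC-MS/MS with channel sums equalised, and reported as log2 fold change in thermal stability against DMSO controls, with values from duplicates.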

Protein sequences, listed by entry. Tags and fused reporters are not part of them. Lines headed by an entry give the natural chain unless they say otherwise; changes in a name come on top.
UniProt Q9Y6I9: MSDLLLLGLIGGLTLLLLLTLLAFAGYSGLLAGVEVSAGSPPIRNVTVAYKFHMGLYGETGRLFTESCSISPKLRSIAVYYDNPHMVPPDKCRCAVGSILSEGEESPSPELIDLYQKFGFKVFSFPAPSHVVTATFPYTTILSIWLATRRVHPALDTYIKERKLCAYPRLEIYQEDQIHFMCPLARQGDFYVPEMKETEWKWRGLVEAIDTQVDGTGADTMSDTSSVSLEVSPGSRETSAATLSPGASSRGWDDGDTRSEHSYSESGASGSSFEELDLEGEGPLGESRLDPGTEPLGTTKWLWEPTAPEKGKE
UniProt P28347, whole entry, looked up: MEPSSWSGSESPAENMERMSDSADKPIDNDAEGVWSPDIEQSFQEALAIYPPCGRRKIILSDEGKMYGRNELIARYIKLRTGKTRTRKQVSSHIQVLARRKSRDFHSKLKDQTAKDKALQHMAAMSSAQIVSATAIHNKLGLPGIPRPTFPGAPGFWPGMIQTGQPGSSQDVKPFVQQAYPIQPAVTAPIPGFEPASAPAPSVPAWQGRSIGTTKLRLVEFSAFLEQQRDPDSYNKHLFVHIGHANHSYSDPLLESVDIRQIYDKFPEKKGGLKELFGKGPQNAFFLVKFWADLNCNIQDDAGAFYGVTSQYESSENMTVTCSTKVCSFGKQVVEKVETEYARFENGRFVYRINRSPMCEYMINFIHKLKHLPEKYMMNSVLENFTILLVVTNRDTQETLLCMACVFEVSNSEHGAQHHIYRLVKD
UniProt Q9C0B7: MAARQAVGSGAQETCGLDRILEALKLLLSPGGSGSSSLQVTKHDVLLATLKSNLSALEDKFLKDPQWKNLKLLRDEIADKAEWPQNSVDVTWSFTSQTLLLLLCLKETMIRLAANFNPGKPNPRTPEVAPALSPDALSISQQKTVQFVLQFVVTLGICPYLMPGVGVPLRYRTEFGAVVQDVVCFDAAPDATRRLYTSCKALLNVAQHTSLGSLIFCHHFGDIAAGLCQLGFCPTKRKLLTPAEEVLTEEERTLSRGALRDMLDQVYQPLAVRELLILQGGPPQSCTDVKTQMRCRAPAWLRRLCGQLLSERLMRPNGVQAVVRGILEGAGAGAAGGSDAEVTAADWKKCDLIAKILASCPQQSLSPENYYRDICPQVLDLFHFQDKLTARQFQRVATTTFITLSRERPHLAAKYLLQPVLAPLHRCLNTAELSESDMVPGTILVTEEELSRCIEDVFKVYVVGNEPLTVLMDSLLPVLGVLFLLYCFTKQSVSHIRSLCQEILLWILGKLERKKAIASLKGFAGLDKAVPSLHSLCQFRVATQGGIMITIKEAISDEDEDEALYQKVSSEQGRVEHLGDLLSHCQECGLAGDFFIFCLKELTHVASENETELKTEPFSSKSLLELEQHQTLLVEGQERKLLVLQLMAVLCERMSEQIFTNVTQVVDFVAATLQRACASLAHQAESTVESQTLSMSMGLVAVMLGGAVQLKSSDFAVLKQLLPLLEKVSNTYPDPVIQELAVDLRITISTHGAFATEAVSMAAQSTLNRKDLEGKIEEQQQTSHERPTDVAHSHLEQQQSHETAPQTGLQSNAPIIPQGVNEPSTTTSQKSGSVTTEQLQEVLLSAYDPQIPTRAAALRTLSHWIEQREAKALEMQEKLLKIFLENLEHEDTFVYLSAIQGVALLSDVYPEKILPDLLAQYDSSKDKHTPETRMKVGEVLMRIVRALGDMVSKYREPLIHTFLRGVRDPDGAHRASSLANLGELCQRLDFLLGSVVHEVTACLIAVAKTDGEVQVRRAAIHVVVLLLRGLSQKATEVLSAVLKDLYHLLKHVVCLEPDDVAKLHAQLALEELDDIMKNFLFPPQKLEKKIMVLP
UniProt Q9H5Q4: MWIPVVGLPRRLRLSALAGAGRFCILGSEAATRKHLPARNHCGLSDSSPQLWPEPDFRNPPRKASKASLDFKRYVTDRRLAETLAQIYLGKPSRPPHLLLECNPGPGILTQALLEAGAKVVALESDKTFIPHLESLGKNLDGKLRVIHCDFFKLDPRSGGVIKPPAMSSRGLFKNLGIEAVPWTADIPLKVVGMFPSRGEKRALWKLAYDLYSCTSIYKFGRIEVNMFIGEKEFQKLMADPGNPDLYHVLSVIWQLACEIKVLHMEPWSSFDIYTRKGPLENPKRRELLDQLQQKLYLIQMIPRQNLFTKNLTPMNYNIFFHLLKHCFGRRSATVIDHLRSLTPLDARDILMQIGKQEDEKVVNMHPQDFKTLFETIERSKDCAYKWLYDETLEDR
UniProt A6NFQ2: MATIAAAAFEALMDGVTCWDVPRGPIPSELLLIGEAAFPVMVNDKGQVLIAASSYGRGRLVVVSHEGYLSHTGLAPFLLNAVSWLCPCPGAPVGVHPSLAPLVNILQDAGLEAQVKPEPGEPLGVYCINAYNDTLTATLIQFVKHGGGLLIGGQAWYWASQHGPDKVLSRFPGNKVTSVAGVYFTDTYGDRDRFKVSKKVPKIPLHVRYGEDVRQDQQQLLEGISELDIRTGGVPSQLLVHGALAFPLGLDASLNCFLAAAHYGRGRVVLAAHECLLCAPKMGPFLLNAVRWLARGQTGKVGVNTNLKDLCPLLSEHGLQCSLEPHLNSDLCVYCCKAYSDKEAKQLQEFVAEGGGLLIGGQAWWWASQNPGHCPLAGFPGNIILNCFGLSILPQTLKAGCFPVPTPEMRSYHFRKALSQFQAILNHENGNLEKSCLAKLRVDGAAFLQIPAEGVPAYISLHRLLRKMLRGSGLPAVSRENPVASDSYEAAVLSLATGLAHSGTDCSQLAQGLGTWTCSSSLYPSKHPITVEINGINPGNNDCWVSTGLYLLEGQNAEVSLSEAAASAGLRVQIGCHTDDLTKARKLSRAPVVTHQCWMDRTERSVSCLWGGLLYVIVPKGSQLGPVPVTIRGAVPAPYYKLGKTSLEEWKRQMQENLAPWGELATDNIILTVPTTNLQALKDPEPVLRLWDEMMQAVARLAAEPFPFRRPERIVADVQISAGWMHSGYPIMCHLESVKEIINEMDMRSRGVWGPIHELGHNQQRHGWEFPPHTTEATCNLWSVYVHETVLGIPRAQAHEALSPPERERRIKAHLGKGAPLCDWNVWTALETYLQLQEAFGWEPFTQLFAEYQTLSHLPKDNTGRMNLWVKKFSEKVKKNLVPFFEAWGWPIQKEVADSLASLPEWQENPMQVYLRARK
UniProt Q5VWP2: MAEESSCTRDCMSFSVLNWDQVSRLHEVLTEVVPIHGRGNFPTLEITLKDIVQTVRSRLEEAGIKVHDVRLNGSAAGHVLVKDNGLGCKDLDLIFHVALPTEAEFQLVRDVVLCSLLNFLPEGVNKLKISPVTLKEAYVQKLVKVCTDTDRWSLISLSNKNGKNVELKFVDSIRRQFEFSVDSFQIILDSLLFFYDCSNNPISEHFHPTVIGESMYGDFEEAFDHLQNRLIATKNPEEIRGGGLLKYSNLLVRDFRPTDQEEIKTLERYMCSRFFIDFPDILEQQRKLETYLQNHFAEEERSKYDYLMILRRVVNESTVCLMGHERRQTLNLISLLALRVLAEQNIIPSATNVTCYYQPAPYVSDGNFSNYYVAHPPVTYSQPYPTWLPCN
UniProt P37802: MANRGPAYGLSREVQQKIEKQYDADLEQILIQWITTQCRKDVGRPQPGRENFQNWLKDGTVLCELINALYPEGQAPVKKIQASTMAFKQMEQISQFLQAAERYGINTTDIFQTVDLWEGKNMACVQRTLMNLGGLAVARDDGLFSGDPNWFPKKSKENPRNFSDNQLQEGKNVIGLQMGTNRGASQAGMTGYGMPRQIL
UniProt Q13569: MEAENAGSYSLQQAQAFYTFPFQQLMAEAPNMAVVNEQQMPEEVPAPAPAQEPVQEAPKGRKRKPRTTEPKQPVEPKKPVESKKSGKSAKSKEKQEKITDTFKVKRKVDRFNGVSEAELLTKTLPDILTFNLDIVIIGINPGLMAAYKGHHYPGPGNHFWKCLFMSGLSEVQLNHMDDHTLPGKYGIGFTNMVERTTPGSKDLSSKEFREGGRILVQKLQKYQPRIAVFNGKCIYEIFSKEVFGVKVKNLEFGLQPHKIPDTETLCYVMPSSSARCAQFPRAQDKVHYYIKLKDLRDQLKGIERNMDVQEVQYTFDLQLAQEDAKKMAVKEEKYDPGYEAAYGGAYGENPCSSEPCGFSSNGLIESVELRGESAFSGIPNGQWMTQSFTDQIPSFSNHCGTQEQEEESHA
UniProt O43435: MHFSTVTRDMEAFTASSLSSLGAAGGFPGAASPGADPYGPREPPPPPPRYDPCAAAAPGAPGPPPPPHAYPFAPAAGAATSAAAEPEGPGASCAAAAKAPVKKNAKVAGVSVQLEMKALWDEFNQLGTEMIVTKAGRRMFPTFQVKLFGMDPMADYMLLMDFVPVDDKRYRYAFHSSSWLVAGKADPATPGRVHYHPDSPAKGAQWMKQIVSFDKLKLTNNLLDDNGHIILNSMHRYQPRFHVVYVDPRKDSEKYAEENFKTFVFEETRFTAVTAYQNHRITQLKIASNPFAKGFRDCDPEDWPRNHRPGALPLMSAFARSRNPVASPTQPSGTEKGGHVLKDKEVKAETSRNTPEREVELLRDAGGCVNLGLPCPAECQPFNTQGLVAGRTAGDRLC

[2] = compound: CC1=C(SC2=C1C(=N[C@H](C3=NN=C(N32)C)CC(=O)N)C4=CC=C(C=C4)Cl)C
Outline: as §1

[3] = compound: CC1=C2C(=CC=C1)N=C(N(C2=O)C3=CC=CC=C3C)CN4C=NC5=C(N=CN=C54)N
Outline: as §1

[4] = compound: Cc1sc2c(c1C)C(c1ccc(Cl)cc1)=N[C@@H](CC(=O)OC(C)(C)C)c1nnc(C)n1-2
Outline: as §1

[5] = compound: c1ccc([C@@H]2C[C@H]2NC2CCNCC2)cc1
Outline: as §1

Measured: log2 fold change

TEX264 (UniProt Q9Y6I9)
inactive: [1] -0.08 | [2] -0.085 | [3] 0.043 | [4] 0.087 | [5] 0.059

TEAD1 (UniProt P28347)
inactive: [1] -0.088 | [2] -0.039 | [3] -0.005 | [4] -0.134 | [5] 0.045

TANGO6 (UniProt Q9C0B7)
inactive: [1] 0.05 | [2] -0.021 | [3] -0.036 | [4] 0.043 | [5] -0.009

TFB2M (UniProt Q9H5Q4)
inactive: [1] -0.073 | [2] 0.015 | [3] 0.022 | [4] 0.007 | [5] 0.087

TCAF2 (UniProt A6NFQ2)
inactive: [1] 0.159 | [2] 0.091 | [3] 0.027 | [4] 0.007 | [5] 0.042

TENT5C (UniProt Q5VWP2)
inactive: [1] -0.06 | [2] 0.002 | [3] 0.073 | [5] -0.037

TAGLN2 isoform 2 (UniProt P37802)
inactive: [1] 0.042 | [2] -0.061 | [3] -0.003 | [4] -0.002 | [5] 0.011

TDG (UniProt Q13569)
inactive: [1] -0.005 | [2] 0.062 | [3] 0.079 | [4] -0.042 | [5] -0.097

TBX1 isoform 3 (UniProt O43435)
inactive: [1] 0.169 | [2] 0.021 | [3] 0.152 | [5] 0.074

— the supplement of paper PMC10849652
